The other results are listed elsewhere or left out.
Tests used:
Experiment in all cases: log2 fold change, soluble protein after heating vs DMSO (PISA); higher = thermal stabilisation; K562 lysate, 10 uM; active = over 0.2 and 3.5 SD of the protein, either way, in both replicates (recomputed)
[1] = compound: C1=CC=C(C=C1)[C@H](COC2=CC3=C(C=C2)NC(=O)N3)NC(=O)C4=CC=CN(C4=O)CC5=CC(=C(C=C5)F)F
In short: (§1)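 Soluble protein was defined as the supernatant remaining after 21,000xg for 90 min, following pooling of heated aliquots and adjustment to 0.5% NP-40 at 4°C. Before that, crude K562 extract at 1 mg/mL protein in PBS pH 7.4 with 1 mM MgCl2 was treated with 10 μM compound for 30 min and heated for 3 min across 48°C-58°C. Quantification used TMTpro 16plex LC-MS/MS with channel sums equalised, and values are log-two fold changes in thermal stability relative to solvent controls from duplicates.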

The chains behind the UniProt entries cited, without tags or fusion partners. Where a name states a change or a piece, a line headed by the entry shows the natural chain unless it says otherwise.
UniProt P25788: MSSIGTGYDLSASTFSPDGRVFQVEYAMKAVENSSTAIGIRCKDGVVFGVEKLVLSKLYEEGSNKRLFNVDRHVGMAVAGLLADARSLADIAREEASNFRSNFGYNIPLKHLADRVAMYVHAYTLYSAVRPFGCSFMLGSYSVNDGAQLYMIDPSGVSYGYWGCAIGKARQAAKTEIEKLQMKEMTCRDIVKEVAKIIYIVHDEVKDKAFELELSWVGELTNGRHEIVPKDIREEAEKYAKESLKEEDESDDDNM
UniProt P17980, whole entry, looked up: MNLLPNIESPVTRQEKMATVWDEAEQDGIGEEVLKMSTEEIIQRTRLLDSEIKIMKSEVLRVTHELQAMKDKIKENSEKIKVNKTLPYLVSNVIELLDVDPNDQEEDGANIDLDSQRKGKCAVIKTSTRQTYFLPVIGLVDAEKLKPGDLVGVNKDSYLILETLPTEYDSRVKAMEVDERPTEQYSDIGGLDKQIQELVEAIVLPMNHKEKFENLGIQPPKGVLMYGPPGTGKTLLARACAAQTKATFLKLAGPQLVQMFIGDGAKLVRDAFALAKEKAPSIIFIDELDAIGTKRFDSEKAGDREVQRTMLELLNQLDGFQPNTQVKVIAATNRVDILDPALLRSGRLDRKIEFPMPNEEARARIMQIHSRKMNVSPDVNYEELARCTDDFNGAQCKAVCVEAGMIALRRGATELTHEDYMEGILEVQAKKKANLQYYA
UniProt P51665: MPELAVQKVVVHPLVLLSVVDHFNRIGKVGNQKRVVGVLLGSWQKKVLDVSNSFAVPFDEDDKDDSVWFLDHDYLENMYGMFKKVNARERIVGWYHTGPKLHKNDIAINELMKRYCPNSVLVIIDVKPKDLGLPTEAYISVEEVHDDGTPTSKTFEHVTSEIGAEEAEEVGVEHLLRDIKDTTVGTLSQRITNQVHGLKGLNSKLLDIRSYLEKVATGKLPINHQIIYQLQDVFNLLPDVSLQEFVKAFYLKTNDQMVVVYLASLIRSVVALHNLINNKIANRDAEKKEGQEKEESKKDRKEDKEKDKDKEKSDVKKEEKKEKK
UniProt Q9Y520: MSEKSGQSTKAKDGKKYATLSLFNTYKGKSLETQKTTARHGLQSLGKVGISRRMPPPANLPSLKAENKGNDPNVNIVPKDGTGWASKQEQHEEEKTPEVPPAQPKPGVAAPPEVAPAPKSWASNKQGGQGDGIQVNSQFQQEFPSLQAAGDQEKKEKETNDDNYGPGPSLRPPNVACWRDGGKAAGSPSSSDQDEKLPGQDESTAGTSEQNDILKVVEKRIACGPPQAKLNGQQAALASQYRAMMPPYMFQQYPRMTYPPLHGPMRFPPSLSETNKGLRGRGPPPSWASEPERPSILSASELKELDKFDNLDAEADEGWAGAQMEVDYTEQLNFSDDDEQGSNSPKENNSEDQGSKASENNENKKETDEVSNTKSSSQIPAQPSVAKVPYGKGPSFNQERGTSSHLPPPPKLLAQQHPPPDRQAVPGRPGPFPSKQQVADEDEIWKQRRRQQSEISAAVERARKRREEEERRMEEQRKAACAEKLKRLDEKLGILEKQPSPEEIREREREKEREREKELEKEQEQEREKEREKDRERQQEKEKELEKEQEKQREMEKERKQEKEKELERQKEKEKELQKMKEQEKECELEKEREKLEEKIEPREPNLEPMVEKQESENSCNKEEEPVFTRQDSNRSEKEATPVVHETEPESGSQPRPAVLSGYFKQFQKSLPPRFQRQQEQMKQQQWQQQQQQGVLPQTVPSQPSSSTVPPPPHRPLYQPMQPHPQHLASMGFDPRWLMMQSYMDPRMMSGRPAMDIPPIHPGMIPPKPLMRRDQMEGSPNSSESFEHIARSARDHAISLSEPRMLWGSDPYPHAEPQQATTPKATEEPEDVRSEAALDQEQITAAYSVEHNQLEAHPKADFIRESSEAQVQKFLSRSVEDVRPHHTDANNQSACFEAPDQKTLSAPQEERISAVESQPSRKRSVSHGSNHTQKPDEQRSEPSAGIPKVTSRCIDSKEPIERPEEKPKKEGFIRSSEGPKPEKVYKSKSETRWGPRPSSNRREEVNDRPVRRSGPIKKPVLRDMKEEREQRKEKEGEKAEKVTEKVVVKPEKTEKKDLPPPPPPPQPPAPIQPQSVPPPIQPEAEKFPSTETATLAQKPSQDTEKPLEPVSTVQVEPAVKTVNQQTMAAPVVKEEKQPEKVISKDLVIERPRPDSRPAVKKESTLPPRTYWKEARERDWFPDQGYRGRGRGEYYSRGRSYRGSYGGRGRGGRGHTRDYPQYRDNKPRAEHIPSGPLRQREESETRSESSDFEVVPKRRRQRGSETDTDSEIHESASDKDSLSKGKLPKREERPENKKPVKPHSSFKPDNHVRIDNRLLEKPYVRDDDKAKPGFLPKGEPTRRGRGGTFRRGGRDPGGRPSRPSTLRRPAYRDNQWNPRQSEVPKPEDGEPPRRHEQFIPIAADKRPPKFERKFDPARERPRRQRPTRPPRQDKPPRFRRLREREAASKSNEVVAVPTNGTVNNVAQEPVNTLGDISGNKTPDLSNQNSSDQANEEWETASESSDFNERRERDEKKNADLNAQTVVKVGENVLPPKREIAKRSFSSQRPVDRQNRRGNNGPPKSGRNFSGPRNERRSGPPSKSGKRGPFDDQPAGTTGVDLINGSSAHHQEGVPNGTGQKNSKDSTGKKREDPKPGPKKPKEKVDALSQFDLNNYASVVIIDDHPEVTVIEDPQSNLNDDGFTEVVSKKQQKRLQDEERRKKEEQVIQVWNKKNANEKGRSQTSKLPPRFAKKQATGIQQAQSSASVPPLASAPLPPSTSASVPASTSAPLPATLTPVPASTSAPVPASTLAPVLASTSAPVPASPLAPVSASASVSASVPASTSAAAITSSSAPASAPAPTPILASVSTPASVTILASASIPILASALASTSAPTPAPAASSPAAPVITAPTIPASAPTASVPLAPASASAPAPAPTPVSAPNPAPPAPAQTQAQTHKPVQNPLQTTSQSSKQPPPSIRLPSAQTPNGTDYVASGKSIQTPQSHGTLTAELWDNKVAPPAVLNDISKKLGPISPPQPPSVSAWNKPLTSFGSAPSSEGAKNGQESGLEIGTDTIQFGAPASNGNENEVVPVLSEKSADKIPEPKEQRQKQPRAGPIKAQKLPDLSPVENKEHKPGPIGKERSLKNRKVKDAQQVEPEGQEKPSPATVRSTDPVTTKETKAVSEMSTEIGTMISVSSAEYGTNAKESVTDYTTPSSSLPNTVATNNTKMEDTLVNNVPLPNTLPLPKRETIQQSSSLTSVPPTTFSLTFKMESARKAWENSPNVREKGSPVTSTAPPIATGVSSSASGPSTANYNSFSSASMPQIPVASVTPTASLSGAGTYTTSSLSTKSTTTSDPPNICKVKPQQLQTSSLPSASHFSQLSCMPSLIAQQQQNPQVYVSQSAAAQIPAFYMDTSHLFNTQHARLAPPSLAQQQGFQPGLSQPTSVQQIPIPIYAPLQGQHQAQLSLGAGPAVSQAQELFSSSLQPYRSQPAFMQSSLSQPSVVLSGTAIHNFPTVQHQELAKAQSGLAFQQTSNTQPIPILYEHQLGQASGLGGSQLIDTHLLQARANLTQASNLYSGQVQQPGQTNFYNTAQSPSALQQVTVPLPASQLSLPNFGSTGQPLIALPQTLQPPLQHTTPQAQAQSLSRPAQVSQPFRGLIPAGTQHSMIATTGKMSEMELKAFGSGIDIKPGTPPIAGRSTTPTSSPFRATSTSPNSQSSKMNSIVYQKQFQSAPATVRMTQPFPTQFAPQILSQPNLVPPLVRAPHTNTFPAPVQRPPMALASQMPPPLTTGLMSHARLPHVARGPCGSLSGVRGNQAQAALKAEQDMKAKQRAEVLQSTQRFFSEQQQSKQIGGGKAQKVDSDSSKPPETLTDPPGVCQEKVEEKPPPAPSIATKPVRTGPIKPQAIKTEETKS
UniProt P49721: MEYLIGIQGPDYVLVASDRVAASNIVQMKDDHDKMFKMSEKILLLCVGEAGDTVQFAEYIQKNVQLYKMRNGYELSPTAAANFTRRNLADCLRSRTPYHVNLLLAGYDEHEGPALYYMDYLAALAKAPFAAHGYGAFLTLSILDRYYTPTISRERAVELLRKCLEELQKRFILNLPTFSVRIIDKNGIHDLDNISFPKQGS
UniProt P06454: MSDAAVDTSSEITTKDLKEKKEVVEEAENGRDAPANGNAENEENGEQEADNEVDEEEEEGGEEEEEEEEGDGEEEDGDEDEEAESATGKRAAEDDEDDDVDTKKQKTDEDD
UniProt Q9UNM6: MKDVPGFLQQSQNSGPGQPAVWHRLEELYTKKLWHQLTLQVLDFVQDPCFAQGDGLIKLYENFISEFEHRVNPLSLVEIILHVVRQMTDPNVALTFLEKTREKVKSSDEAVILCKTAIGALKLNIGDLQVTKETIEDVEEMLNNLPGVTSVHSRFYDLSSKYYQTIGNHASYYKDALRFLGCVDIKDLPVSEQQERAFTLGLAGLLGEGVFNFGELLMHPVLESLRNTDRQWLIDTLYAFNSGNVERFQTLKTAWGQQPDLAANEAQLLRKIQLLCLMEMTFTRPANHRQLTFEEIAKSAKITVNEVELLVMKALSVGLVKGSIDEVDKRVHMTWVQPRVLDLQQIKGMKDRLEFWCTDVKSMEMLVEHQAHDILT
UniProt P28066: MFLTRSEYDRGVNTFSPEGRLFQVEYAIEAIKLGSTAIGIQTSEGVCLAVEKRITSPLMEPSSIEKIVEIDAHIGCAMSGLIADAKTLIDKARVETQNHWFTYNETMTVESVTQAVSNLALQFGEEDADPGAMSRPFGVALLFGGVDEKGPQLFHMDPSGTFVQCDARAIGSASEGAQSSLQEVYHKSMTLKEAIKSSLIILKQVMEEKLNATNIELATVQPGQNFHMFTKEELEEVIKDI
UniProt Q8TBF2: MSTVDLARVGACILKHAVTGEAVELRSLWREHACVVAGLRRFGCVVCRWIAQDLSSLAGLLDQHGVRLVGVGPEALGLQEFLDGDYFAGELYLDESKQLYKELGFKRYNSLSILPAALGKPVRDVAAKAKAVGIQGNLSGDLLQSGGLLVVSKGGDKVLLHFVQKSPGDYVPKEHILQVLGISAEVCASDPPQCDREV
UniProt Q99436: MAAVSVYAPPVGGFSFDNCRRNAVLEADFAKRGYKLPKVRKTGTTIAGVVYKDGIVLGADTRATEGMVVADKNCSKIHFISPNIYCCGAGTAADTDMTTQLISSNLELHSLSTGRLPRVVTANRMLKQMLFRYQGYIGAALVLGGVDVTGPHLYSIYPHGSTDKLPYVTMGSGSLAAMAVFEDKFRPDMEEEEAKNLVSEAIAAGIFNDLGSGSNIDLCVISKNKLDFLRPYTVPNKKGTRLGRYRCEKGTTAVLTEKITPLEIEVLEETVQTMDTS
UniProt O00233: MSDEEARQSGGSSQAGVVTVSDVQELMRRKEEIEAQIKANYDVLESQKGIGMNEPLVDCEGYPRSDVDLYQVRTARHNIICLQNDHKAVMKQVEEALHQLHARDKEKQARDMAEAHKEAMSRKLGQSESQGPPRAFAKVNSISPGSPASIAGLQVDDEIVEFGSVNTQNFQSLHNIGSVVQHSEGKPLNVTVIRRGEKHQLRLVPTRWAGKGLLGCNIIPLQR
UniProt O43242, whole entry, looked up: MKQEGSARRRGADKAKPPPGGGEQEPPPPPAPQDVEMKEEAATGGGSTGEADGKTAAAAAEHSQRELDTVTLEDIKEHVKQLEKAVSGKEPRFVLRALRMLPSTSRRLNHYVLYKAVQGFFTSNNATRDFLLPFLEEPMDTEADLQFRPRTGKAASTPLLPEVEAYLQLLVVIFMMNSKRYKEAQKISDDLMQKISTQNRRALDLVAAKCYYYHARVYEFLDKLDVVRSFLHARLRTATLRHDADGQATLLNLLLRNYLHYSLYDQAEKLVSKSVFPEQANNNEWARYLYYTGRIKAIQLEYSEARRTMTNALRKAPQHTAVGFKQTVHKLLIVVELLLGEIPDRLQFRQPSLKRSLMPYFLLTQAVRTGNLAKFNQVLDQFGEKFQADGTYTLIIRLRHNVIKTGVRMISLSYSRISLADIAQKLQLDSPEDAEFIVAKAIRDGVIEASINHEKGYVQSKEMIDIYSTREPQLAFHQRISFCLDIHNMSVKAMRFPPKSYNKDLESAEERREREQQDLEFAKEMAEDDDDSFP
UniProt Q9BZE2: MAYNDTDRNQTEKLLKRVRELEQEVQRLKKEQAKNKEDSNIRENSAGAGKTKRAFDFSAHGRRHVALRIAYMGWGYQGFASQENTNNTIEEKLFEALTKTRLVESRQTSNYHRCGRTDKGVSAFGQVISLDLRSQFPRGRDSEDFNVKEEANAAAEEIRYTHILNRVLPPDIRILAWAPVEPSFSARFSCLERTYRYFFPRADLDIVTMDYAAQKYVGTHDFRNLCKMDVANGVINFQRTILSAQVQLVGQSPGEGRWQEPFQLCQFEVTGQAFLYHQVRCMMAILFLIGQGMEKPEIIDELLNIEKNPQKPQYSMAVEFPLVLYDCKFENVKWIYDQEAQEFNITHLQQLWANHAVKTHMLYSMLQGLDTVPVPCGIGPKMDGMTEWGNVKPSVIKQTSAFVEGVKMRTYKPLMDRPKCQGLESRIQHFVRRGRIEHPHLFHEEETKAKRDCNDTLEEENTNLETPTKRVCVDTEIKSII

[2] = compound: CC1=C(SC2=C1C(=N[C@H](C3=NN=C(N32)C)CC(=O)N)C4=CC=C(C=C4)Cl)C
In short: as §1

[3] = compound: CC1=C2C(=CC=C1)N=C(N(C2=O)C3=CC=CC=C3C)CN4C=NC5=C(N=CN=C54)N
In short: as §1

[4] = compound: Cc1sc2c(c1C)C(c1ccc(Cl)cc1)=N[C@@H](CC(=O)OC(C)(C)C)c1nnc(C)n1-2
In short: as §1

[5] = compound: c1ccc([C@@H]2C[C@H]2NC2CCNCC2)cc1
In short: as §1

Measured: log2 fold change

PTPN7 isoform 3 (UniProt P35236)
inactive: [1] -0.028 | [2] 0.002 | [3] -0.031 | [4] 0.015 | [5] -0.012

PSMD1, A0A087WW66
inactive: [1] 0.021 | [2] 0.016

PSMB9 (UniProt P28065)
inactive: [1] 0.074 | [2] 0.159 | [3] 0.111 | [4] -0.095 | [5] -0.013

PWP1 (UniProt Q13610)
inactive: [1] 0.041 | [2] -0.041 | [3] -0.052 | [4] -0.004 | [5] 0.088

PSMA3 (UniProt P25788)
inactive: [1] 0.026 | [2] 0 | [3] -0.016 | [4] -0.034 | [5] 0.04

PUSL1 (UniProt Q8N0Z8)
inactive: [1] -0.459 | [2] 0.222 | [3] 0.026 | [4] -0.05 | [5] -0.052

PSMA2 (UniProt P25787)
inactive: [1] 0 | [2] 0.029 | [3] -0.011 | [4] -0.014 | [5] 0.001

PSMC3 (UniProt P17980)
inactive: [1] -0.001 | [2] 0.01 | [3] -0.004 | [4] 0.007 | [5] 0.03

PUM3 (UniProt Q15397)
inactive: [1] -0.049 | [2] 0.053 | [3] 0.055 | [4] 0.021 | [5] 0.08

3 neighbouring records already listed, quoted:
PSMA2 (UniProt P25787)
inactive: [1] 0 | [2] 0.029 | [3] -0.011 | [4] -0.014 | [5] 0.001

PSMC3 (UniProt P17980)
inactive: [1] -0.001 | [2] 0.01 | [3] -0.004 | [4] 0.007 | [5] 0.03

PUM3 (UniProt Q15397)
inactive: [1] -0.049 | [2] 0.053 | [3] 0.055 | [4] 0.021 | [5] 0.08

The listing continues.

PSMB10 (UniProt P40306)
inactive: [1] -0.054 | [2] -0.128 | [3] -0.1 | [4] 0.07 | [5] -0.061

PSMD7 (UniProt P51665)
inactive: [1] -0.005 | [2] 0.019 | [3] -0.007 | [4] -0.019 | [5] 0.016

PRRC2C isoform 7 (UniProt Q9Y520)
inactive: [1] 0.006 | [2] -0.001 | [3] 0.005 | [4] -0.006 | [5] -0.042

PSMB2 (UniProt P49721)
inactive: [1] 0.063 | [2] -0.053 | [3] -0.023 | [4] -0.037 | [5] -0.065

PSAP isoform 3 (UniProt P07602)
inactive: [1] 0.018 | [2] -0.007 | [3] -0.033 | [4] -0.013 | [5] 0.033

PTPN18 (UniProt Q99952)
inactive: [1] 0.009 | [2] -0.087 | [3] -0.013 | [4] 0.057

PURA (UniProt Q00577)
inactive: [1] 0.004 | [2] 0.029 | [3] 0.003 | [4] -0.01 | [5] 0.061

PTMA isoform 2 (UniProt P06454)
inactive: [1] 0.098 | [2] -0.016

PSMB1 (UniProt P20618)
inactive: [1] 0.03 | [2] 0.006 | [3] 0.003 | [4] -0.037 | [5] 0.017

PTAR1 (UniProt Q7Z6K3)
inactive: [1] 0.087 | [2] 0.056 | [3] 0.018 | [4] 0.057 | [5] -0.033

PRPSAP1 isoform 2 (UniProt Q14558)
inactive: [1] 0.026 | [2] 0.008 | [3] 0.039 | [4] -0.002 | [5] 0.011

PRRC1 (UniProt Q96M27)
inactive: [1] 0.04 | [2] 0 | [3] 0.021 | [4] -0.014 | [5] -0.034

PTPDC1 isoform 2 (UniProt A2A3K4)
inactive: [1] -0.005 | [2] 0.083 | [3] 0.063

PSMD13 (UniProt Q9UNM6)
inactive: [1] -0.118 | [2] -0.046 | [3] -0.015 | [4] 0.031 | [5] 0.018

PTBP2 isoform 2 (UniProt Q9UKA9)
inactive: [1] -0.051 | [2] 0.059 | [3] 0.04 | [4] -0.039 | [5] -0.17

PTS (UniProt Q03393)
inactive: [1] -0.024 | [3] 0.032 | [4] -0.093 | [5] 0.022
active: [2] -0.274

PTMA (UniProt P06454)
inactive: [1] 0.015 | [2] 0.018 | [3] 0.01 | [4] -0.004 | [5] 0.241

PTPN6 isoform 4 (UniProt P29350)
inactive: [1] 0.12 | [2] 0.029 | [3] 0.063 | [4] 0.047 | [5] 0.133

PSMC1 (UniProt P62191)
inactive: [1] 0 | [2] 0.012 | [3] 0.014 | [4] 0.042 | [5] -0.027

PTRHD1 (UniProt Q6GMV3)
inactive: [1] -0.044 | [2] 0.041 | [3] 0.086 | [4] -0.017 | [5] 0.132

PSMA5 (UniProt P28066)
inactive: [1] 0.001 | [2] -0.011 | [3] -0.018 | [4] -0.022 | [5] -0.087

PSMC6 (UniProt P62333)
inactive: [1] -0.011 | [2] 0.013 | [3] 0.013 | [4] 0.027 | [5] 0.018

PTK2 (UniProt Q05397)
inactive: [1] 0.006 | [2] -0.027 | [3] -0.003 | [4] 0.023 | [5] -0.131

PTTG1 (UniProt O95997)
inactive: [1] 0.093 | [2] -0.025 | [3] -0.049 | [4] -0.01 | [5] -0.113

PTDSS1 (UniProt P48651)
inactive: [1] -0.142 | [2] 0.123 | [3] 0.095 | [4] 0.079 | [5] 0.002

PRXL2B isoform 3 (UniProt Q8TBF2)
inactive: [1] -0.016 | [2] 0.128 | [3] 0.044 | [4] -0.064 | [5] 0.027

PSPC1 (UniProt Q8WXF1)
inactive: [1] 0.026 | [2] -0.015 | [3] 0.019 | [4] 0.047 | [5] 0.013

PTPRC (UniProt P08575)
inactive: [1] 0.009 | [2] 0.014 | [3] -0.019 | [4] -0.021 | [5] -0.029

PTP4A1 (UniProt Q93096)
inactive: [1] 0.047 | [2] 0.006 | [3] 0.012 | [4] -0.01 | [5] 0.041

PSMA1 isoform 2 (UniProt P25786)
inactive: [1] 0.037 | [2] 0.01 | [3] -0.01 | [4] 0.008 | [5] -0.004

PUDP isoform 4 (UniProt Q08623)
inactive: [1] -0.06 | [2] -0.045 | [3] -0.015 | [4] -0.039 | [5] -0.076

PTPN23 (UniProt Q9H3S7)
inactive: [1] -0.033 | [2] 0.011 | [3] 0.007 | [4] 0.024 | [5] 0

PTPN11 isoform 1 (UniProt Q06124)
inactive: [1] 0.003 | [2] -0.035 | [3] 0.024 | [4] 0.025 | [5] -0.003

PRTFDC1 (UniProt Q9NRG1)
inactive: [1] 0.019 | [2] -0.023 | [3] -0.013 | [4] -0.002 | [5] 0.019

PUS10 (UniProt Q3MIT2)
inactive: [1] 0.024 | [2] -0.027 | [3] -0.007 | [4] -0.04 | [5] 0.052

PRPH isoform 2 (UniProt P41219)
inactive: [1] 0.002 | [2] -0.006 | [3] 0.03 | [4] -0.059 | [5] 0.119

PSMB7 (UniProt Q99436)
inactive: [1] 0.027 | [2] 0.032 | [3] -0.01 | [4] -0.049 | [5] -0.013

PSMC3IP (UniProt Q9P2W1)
inactive: [1] -0.009 | [2] 0.052 | [3] 0.037 | [4] -0.013 | [5] 0.03

PSMA4 (UniProt P25789)
inactive: [1] 0.029 | [2] -0.003 | [3] 0.003 | [4] -0.045 | [5] 0.012

PSMD9 (UniProt O00233)
inactive: [1] 0.028 | [2] -0.007 | [3] 0.008 | [4] -0.017 | [5] -0.026

PSMD3 (UniProt O43242)
inactive: [1] -0.012 | [2] 0.017 | [3] 0.01 | [4] 0.012 | [5] 0.042

PRPF8 (UniProt Q6P2Q9)
inactive: [1] 0.014 | [2] -0.017 | [3] 0.011 | [4] 0.016 | [5] 0.044

PSMC4 (UniProt P43686)
inactive: [1] -0.028 | [2] 0.039 | [3] 0.007 | [4] 0.008 | [5] 0.049

PSMD12 (UniProt O00232)
inactive: [1] -0.004 | [2] 0.014 | [3] 0.009 | [4] 0.034 | [5] 0.053

PUS3 (UniProt Q9BZE2)
inactive: [1] -0.006 | [2] -0.089 | [3] -0.073 | [4] 0.082 | [5] 0.135
